Negatives hold for the conditions tested.
Target: TadA wild type (Escherichia coli) (UniProt P68398)
Test: binding assay
Details: N6-methyl-A at all A (transcribed with N6-methyl-ATP); fully rejects N6-methyladenosine in tRNA; purified recombinant protein; variant of E. coli tRNAArg(ACG) unmethylated

Protein sequences, listed by entry. Tags and fused reporters are not part of them. Lines headed by an entry give the natural chain unless they say otherwise; changes in a name come on top.
UniProt P68398: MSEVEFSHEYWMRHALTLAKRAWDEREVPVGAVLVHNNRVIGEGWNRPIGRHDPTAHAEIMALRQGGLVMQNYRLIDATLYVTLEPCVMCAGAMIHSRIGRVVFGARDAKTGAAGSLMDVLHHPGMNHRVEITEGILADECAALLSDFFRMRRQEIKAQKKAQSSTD

Sequence: GCAUCCGUAGCUCAGCUGGAUAGAGUACUCGGCUACGAACCGAGCGGUCGGAGGUUCGAAUCCUCCCGGAUGCACCA [E. coli tRNAArg(ACG) N6-methyl-A]
- binding result: no binding

Source: patent US20240352439
